{"source": "PubChem BioAssay AID652272 (Drosophila RNAi Screening Center, 2013)", "purpose": "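Genes whose knock-down decreases or increases Hedgehog reporter output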 (primary screen)", "system": "Drosophila clone 8 (Cl8) cells", "knock-down reagent": "long dsRNA against Drosophila genes", "detection": "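Plate reader light from a firefly reporter under a ptc promoter fragment that responds to Hedgehog, with Renilla light as transfection reference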", "scale": "firefly Hh reporter signal: higher = more ptc reporter light; Renilla reference signal: higher = more Renilla control light", "hit rule": "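Hit when the z-score averaged over two replicates is under -2 or over +3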", "meaning of the calls": "active = hit: reporter lowered or raised; inactive = not a hit", "note": "In all, the deposit lists about 21,000 reagents; below is an unselected part of those with a known target gene and a result. In the full data, 503 (2.4%) were called active. 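Raw plate light values, not normalised; calls rest on replicate z-scores that were not deposited; hits include reporter decreases as well as increases.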 A plus sign joins genes that one reagent is predicted to hit. The record does not give: the amount of reagent, the time to read-out."}
{"gene":"chp","firefly Hh reporter signal, replicate 1":80358,"firefly Hh reporter signal, replicate 2":1.08e5,"Renilla reference signal, replicate 1":1360,"Renilla reference signal, replicate 2":3232,"outcome":"inactive"}
{"gene":"Grip163","firefly Hh reporter signal, replicate 1":43810,"firefly Hh reporter signal, replicate 2":33993,"firefly Hh reporter signal, replicate 3":40838,"Renilla reference signal, replicate 1":3515,"Renilla reference signal, replicate 2":3397,"outcome":"inactive"}
{"gene":"Gr66a","firefly Hh reporter signal, replicate 1":46541,"firefly Hh reporter signal, replicate 2":49034,"Renilla reference signal, replicate 1":3794,"Renilla reference signal, replicate 2":4029,"outcome":"inactive"}
{"gene":"UQCR-6.4","firefly Hh reporter signal, replicate 1":75178,"firefly Hh reporter signal, replicate 2":38854,"Renilla reference signal, replicate 1":2072,"Renilla reference signal, replicate 2":2714,"outcome":"inactive"}

Next part; the last 2 above are carried over.
{"gene":"Gr66a","firefly Hh reporter signal, replicate 1":46541,"firefly Hh reporter signal, replicate 2":49034,"Renilla reference signal, replicate 1":3794,"Renilla reference signal, replicate 2":4029,"outcome":"inactive"}
{"gene":"UQCR-6.4","firefly Hh reporter signal, replicate 1":75178,"firefly Hh reporter signal, replicate 2":38854,"Renilla reference signal, replicate 1":2072,"Renilla reference signal, replicate 2":2714,"outcome":"inactive"}
{"gene":"COX7B","firefly Hh reporter signal, replicate 1":1.55e5,"Renilla reference signal, replicate 1":5840,"Renilla reference signal, replicate 2":3850,"outcome":"inactive"}
{"gene":"HP1b","firefly Hh reporter signal, replicate 1":1.41e5,"firefly Hh reporter signal, replicate 2":3.09e5,"Renilla reference signal, replicate 1":4977,"Renilla reference signal, replicate 2":11493,"outcome":"inactive"}
{"gene":"CR32511","firefly Hh reporter signal, replicate 1":6.12e5,"firefly Hh reporter signal, replicate 2":1.45e5,"Renilla reference signal, replicate 1":6795,"Renilla reference signal, replicate 2":6795,"outcome":"inactive"}
{"gene":"CG13204","firefly Hh reporter signal, replicate 1":69525,"firefly Hh reporter signal, replicate 2":43224,"Renilla reference signal, replicate 1":1608,"Renilla reference signal, replicate 2":2953,"outcome":"inactive"}
{"gene":"ABCB7","firefly Hh reporter signal, replicate 1":77004,"firefly Hh reporter signal, replicate 2":35779,"Renilla reference signal, replicate 1":2717,"Renilla reference signal, replicate 2":3186,"outcome":"inactive"}
{"gene":"CG7126","firefly Hh reporter signal, replicate 1":5.22e5,"firefly Hh reporter signal, replicate 2":74328,"Renilla reference signal, replicate 1":28496,"Renilla reference signal, replicate 2":1793,"outcome":"inactive"}
{"gene":"CG12868","firefly Hh reporter signal, replicate 1":85894,"firefly Hh reporter signal, replicate 2":43632,"Renilla reference signal, replicate 1":2211,"Renilla reference signal, replicate 2":2743,"outcome":"inactive"}
{"gene":"CG30109 + CG30108","firefly Hh reporter signal, replicate 1":89776,"firefly Hh reporter signal, replicate 2":2.02e5,"Renilla reference signal, replicate 1":2772,"Renilla reference signal, replicate 2":7826,"outcome":"inactive"}
{"gene":"dgt1","firefly Hh reporter signal, replicate 1":1.22e5,"firefly Hh reporter signal, replicate 2":60644,"Renilla reference signal, replicate 1":1419,"Renilla reference signal, replicate 2":915,"outcome":"active"}
{"gene":"crok","firefly Hh reporter signal, replicate 1":1.97e5,"firefly Hh reporter signal, replicate 2":88912,"Renilla reference signal, replicate 1":4848,"Renilla reference signal, replicate 2":8354,"outcome":"inactive"}
